The other results are listed elsewhere or left out. Shown are side measurements of this screen, not its main read-out; they come without a call. Compounds called inactive in the main read-out are mostly missing here. Words in brackets tell the shape of the fitted curve; partial curves, single points and poor fits give uncertain potencies.
Test: qHTS Assay for Lipid Storage Modulators in Drosophila S3 Cells;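 on cell number change: cells counted by Cell Tracker Red CMTPX staining in the red channel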
Details: BODIPY lipid droplet fluorescence, 18-24 h; for cell number change: measured here: cell count max response, cells fed with added oleic acid
Summary of the method: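 Drosophila S3 cells loaded with oleic acid (400 uM, as added) and compounds at several concentrations; lipid droplets imaged by 488-nm laser-scanning cytometry, 500–530 nm intensity and object ratio to cell channel. Percent activity normalized to 20 uM Triacsin C.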

[1] = measured here: cell number channel AC50, cells fed with added oleic acid
[2] = measured here: lipid fluorescence (Fed channel) AC50, cells fed with added oleic acid

Row | Compound | AC50 [1] | AC50 [2] | cell number change [%]
1 | CCOc1ccc(NC(=O)c2ccc3c(c2)N(Cc2ccc(F)cc2)C(=O)CS3=O)cc1 (configuration not stated) | 1.84 µM [rising, partial curve, poor fit] | 2.31 µM [rising, partial curve] | –
2 | COc1ccc(/C=N/NC(=O)c2cccnc2)c2ccccc12 | 7.31 µM [falling, single point] | – | -16.7
3 | Cc1ccc(S(=O)(=O)N2CCN(C(=O)c3cc(-c4cccs4)nn3-c3ccccc3)CC2)cc1 | 6.51 µM [falling, single point] | 20.6 µM [rising, single point] | –
4 | O=c1[nH]c(=S)n(C2CCCCC2)c(O)c1C=NCCN1CCOCC1 | 29.1 µM [falling, single point] | 29.1 µM [falling, single point] | -51.7
5 | Cc1ccc(NC(=O)Cc2ccc3c(c2)CCCC3)cc1C | 4.11 µM [rising, single point] | 0.651 µM [rising, full curve] | –
6 | C#CCSc1nccc(-c2nn(-c3ccc(C)cc3)ccc2=O)n1 | – | – | -25.9
7 | CCOc1ccc(C(=O)Nc2nccs2)cc1[N+](=O)[O-] | – | 6.51 µM [rising, single point] | 4.65
8 | Cc1ccc(Cl)cc1N1CCN(S(=O)(=O)c2c(C)[nH]c(=O)[nH]c2=O)CC1 | 11.6 µM [rising, partial curve] | – | 35.1
9 | COc1cccc(CCNC(=O)C2CCC(=O)N(C3CC3)C2)c1OC (configuration not stated) | – | 0.58 µM [rising, single point] | 5.63
10 | CCCCC(CCC(=O)O)(C(=O)OCC)c1csc(N)n1 (configuration not stated) | 0.0731 µM [rising, full curve, poor fit] | – | 30.5
11 | COc1cc(OC)cc(C(=O)N[C@H](C(=O)OCn2nnc3ccccc3c2=O)C(C)C)c1 | 4.61 µM [rising, single point] | 5.17 µM [rising, single point] | –
12 | COc1cccc(N=Nc2c(=O)[nH]n3c(C)cc(C)nc23)c1 | – | 16.4 µM [falling, single point] | 27.5
13 | Cc1ccc(S(=O)(=O)N2CCC(NC(=O)c3cccc(F)c3)CC2)cc1 | 0.0058 µM [rising, full curve, poor fit] | – | 32.7
14 | COc1ccccc1NC(=O)Cc1nnc(SCC(=O)NC2CCCCC2)n1C | 0.206 µM [rising, full curve, poor fit] | – | 16.2
15 | CCCCOc1ccc(OCCNC(=O)C2CCCN2C(=O)Nc2ccccc2)cc1 (configuration not stated) | – | – | 18.1
16 | O=C1Nc2ccc(S(=O)(=O)N3CCCC3)c3cccc1c23 | – | – | -6.55
17 | COc1ccc(NC(=O)COC(=O)c2cc(SC)ccc2Cl)c(OC)c1 | 29.1 µM [rising, single point] | 29.1 µM [rising, single point] | 125
18 | O=C(Cn1c(CO)nc2ccccc21)NCCc1ccc(F)cc1 | 5.8 µM [rising, partial curve] | 6.51 µM [rising, partial curve] | 86.2
19 | O=S(=O)(Nc1ccccn1)c1cccs1 | – | 0.82 µM [falling, full curve, poor fit] | -24.7
20 | COc1cccc(CNc2ncnc3cc(Cl)ccc23)c1 | – | 18.4 µM [falling, single point] | -7.17

From no. 1 up to 15, copied from above:
Row | Compound | AC50 [1] | AC50 [2] | cell number change [%]
1 | CCOc1ccc(NC(=O)c2ccc3c(c2)N(Cc2ccc(F)cc2)C(=O)CS3=O)cc1 (configuration not stated) | 1.84 µM [rising, partial curve, poor fit] | 2.31 µM [rising, partial curve] | –
2 | COc1ccc(/C=N/NC(=O)c2cccnc2)c2ccccc12 | 7.31 µM [falling, single point] | – | -16.7
3 | Cc1ccc(S(=O)(=O)N2CCN(C(=O)c3cc(-c4cccs4)nn3-c3ccccc3)CC2)cc1 | 6.51 µM [falling, single point] | 20.6 µM [rising, single point] | –
4 | O=c1[nH]c(=S)n(C2CCCCC2)c(O)c1C=NCCN1CCOCC1 | 29.1 µM [falling, single point] | 29.1 µM [falling, single point] | -51.7
5 | Cc1ccc(NC(=O)Cc2ccc3c(c2)CCCC3)cc1C | 4.11 µM [rising, single point] | 0.651 µM [rising, full curve] | –
6 | C#CCSc1nccc(-c2nn(-c3ccc(C)cc3)ccc2=O)n1 | – | – | -25.9
7 | CCOc1ccc(C(=O)Nc2nccs2)cc1[N+](=O)[O-] | – | 6.51 µM [rising, single point] | 4.65
8 | Cc1ccc(Cl)cc1N1CCN(S(=O)(=O)c2c(C)[nH]c(=O)[nH]c2=O)CC1 | 11.6 µM [rising, partial curve] | – | 35.1
9 | COc1cccc(CCNC(=O)C2CCC(=O)N(C3CC3)C2)c1OC (configuration not stated) | – | 0.58 µM [rising, single point] | 5.63
10 | CCCCC(CCC(=O)O)(C(=O)OCC)c1csc(N)n1 (configuration not stated) | 0.0731 µM [rising, full curve, poor fit] | – | 30.5
11 | COc1cc(OC)cc(C(=O)N[C@H](C(=O)OCn2nnc3ccccc3c2=O)C(C)C)c1 | 4.61 µM [rising, single point] | 5.17 µM [rising, single point] | –
12 | COc1cccc(N=Nc2c(=O)[nH]n3c(C)cc(C)nc23)c1 | – | 16.4 µM [falling, single point] | 27.5
13 | Cc1ccc(S(=O)(=O)N2CCC(NC(=O)c3cccc(F)c3)CC2)cc1 | 0.0058 µM [rising, full curve, poor fit] | – | 32.7
14 | COc1ccccc1NC(=O)Cc1nnc(SCC(=O)NC2CCCCC2)n1C | 0.206 µM [rising, full curve, poor fit] | – | 16.2
15 | CCCCOc1ccc(OCCNC(=O)C2CCCN2C(=O)Nc2ccccc2)cc1 (configuration not stated) | – | – | 18.1

The list continues.

Row | Compound | AC50 [1] | AC50 [2] | cell number change [%]
21 | Cc1sc(NC(=O)CSC2=NCCS2)nc1-c1ccccc1 | – | 0.164 µM [falling, full curve, poor fit] | -21.8
22 | CCC(=O)Nc1ccc(C(=O)N/N=C/c2cc(Br)c(OC)cc2OC)cc1 | – | 1.84 µM [rising, partial curve, poor fit] | -8.22
23 | CCOc1ccc(N(CC(=O)Nc2nccs2)S(=O)(=O)c2c(C)[nH]c(=O)[nH]c2=O)cc1 | 2.06 µM [rising, partial curve, poor fit] | 2.06 µM [rising, partial curve] | -35.5
24 | Cc1ccc(SCc2noc(-c3c(C)noc3C)n2)cc1 | – | 0.731 µM [falling, full curve] | -14.7
25 | Cc1onc(-c2ccccc2)c1C(=O)N1CCN(c2ccccn2)CC1 | – | – | 18.9
26 | Cc1cc(Br)ccc1NC(=O)CNC(=O)CN(C)C1CCS(=O)(=O)C1 (configuration not stated) | 1.64 µM [rising, full curve, poor fit] | – | 43.8
27 | CCOC(=O)c1ccc(N2C(=O)CC(Sc3nc(C)cc(C)n3)C2=O)cc1 (configuration not stated) | – | 6.51 µM [rising, single point] | 14.4
28 | Cc1c(Cl)cccc1NC(=O)N1CCN(C(=O)c2ccco2)CC1 | 0.731 µM [falling, single point] | – | -16.3
29 | O=C(NNC(=O)c1cc(-c2ccccc2Cl)nc2ccccc12)c1csc(N2CCOCC2)n1 | – | 1.84 µM [rising, partial curve, poor fit] | –
30 | CCN(CC(=O)Nc1c(F)cccc1F)C(=O)CCc1c[nH]c2ccccc12 | – | – | 20.6
31 | Cc1cc(C)cc(NC(=O)C2C3C=CC4(O3)C2C(=O)N(CCN2CCCCC2)C4C(=O)NC2CCCCC2)c1 (configuration not stated) | – | 3.26 µM [falling, partial curve, poor fit] | 24.4
32 | Clc1cccc(OCCCCCN2CCOCC2)c1 | – | 14.6 µM [falling, partial curve] | -18.9
33 | O=C(c1cccc(C(F)(F)F)c1)C1CCCN(C(=O)c2cc(C3CC3)[nH]n2)C1 (configuration not stated) | – | 4.61 µM [falling, single point] | -20.3
34 | COc1ccccc1Cc1nc(-c2ccc(C)cc2)no1 | 3.66 µM [rising, full curve] | 3.26 µM [rising, full curve] | 142
35 | CC(=O)c1cccc(NC(=O)COC(=O)c2ccc3c(c2)OCCO3)c1 | – | 29.1 µM [rising, single point] | 30.3
36 | COC(=O)CSc1cc(C)nc(SC)n1 | – | 3.66 µM [falling, full curve] | -11.5
37 | CCC1(c2ccccc2)NC(=S)N(c2ccc(C)c(C)c2)N1 (configuration not stated) | – | 5.17 µM [falling, partial curve, poor fit] | -12.1
38 | CCn1c(=S)sc2c(=O)n(CC(=O)Nc3cccc(Cl)c3)c(C)nc21 | – | 14.6 µM [falling, partial curve, poor fit] | 8.06
39 | CCN(CC)S(=O)(=O)c1ccc(Nc2ccc(-c3ccc4c(c3)OCCO4)nn2)cc1 | 8.2 µM [falling, partial curve, poor fit] | – | -44.5
40 | CCOc1ccc(-c2nnn(CC(=O)c3ccc4c(c3)OCCO4)n2)cc1OCC | – | – | -25.3

Row | Compound | AC50 [1] | AC50 [2] | cell number change [%]
41 | CCOc1cc(/C=C2/SC(=S)NC2=O)ccc1OC(=O)c1ccco1 | – | – | 4.24
42 | Cc1ccc2c(c1)N(CC(=O)N1CCc3ccccc3C1)C(=O)CO2 | – | – | -5.8
43 | CC(=O)Nc1cc(NC(C)=O)cc(C(=O)OCC(=O)N2CC(C)OC(C)C2)c1 (configuration not stated) | – | 5.8 µM [falling, partial curve] | –
44 | CCOC(=O)C1CCCN(c2c(NCCCN(C)Cc3ccccc3)c(=O)c2=O)C1 (configuration not stated) | – | 11.6 µM [falling, partial curve, poor fit] | -42.6
45 | OC(CNCc1ccccc1)COCc1ccc(Cl)cc1 (configuration not stated) | 32.6 µM [falling, single point] | – | -41.5
46 | Cc1cc(C)cc(N)c1 | – | 23.1 µM [rising, single point] | 4.86
47 | O=C(OCc1nnc(-c2ccccc2)o1)c1ccc([N+](=O)[O-])s1 | – | 14.6 µM [falling, partial curve] | -12.2
48 | C=CCOC(=O)C1=C(C)Nc2ncnn2C1c1cccs1 (configuration not stated) | 0.82 µM [rising, full curve] | – | –
49 | COc1c(C)cc(Br)cc1C(=O)Nc1cccc(NC(=O)c2ccco2)c1 | – | 1.46 µM [rising, partial curve] | -32.2
50 | CCN1C(=O)C(NC(C)=O)c2cc(Br)ccc21 (configuration not stated) | – | 32.6 µM [falling, single point] | -26.2
51 | O=C1COc2ccc(C(=O)/C=C/c3ccccc3)cc2N1 | 4.61 µM [rising, single point] | 4.11 µM [rising, partial curve, poor fit] | 5.68
52 | Cc1ccc(CNC(=O)CCC(=O)Nc2nnc(C)s2)cc1 | – | 29.1 µM [rising, single point] | -1.42
53 | Cn1c(SCc2ccccc2)nc(C(F)(F)F)cc1=O | 14.6 µM [falling, partial curve] | 29.1 µM [falling, single point] | -45.6
54 | COCCN(C(=O)CNC(=O)c1ccco1)C(C(=O)NC1CCCC1)c1ccccc1F (configuration not stated) | – | 0.116 µM [falling, single point] | –
55 | CCc1ncc(CN2CCCC(C(=O)Nc3cccc(-c4ccc(F)cc4)c3)C2)cn1 (configuration not stated) | – | 18.4 µM [falling, single point] | –
56 | CCCC(CCC)=NNC(=O)CN(Cc1ccccc1)S(=O)(=O)c1ccccc1 | – | 8.2 µM [rising, partial curve, poor fit] | 18.1
57 | CN(CC(=O)Nc1cc(Cl)ccc1C#N)C1CCS(=O)(=O)C1 (configuration not stated) | – | 29.1 µM [rising, single point] | 17.9
58 | CCOc1cc(/C=N/NC(=O)c2ccc(N(C)S(=O)(=O)c3ccccc3)cc2)ccc1OC | 0.082 µM [falling, full curve, poor fit] | 16.4 µM [falling, partial curve, poor fit] | -34.3
59 | N/C(=N\c1nc2ccccc2o1)NC(=O)c1ccccc1NC(=O)c1ccccc1 | – | 0.731 µM [rising, single point] | –
